The source of these data is the supplement of paper PMC12595434, “Development of retinoid nuclear receptor pathway antagonists through targeting aldehyde dehydrogenase 1A3” (iScience, 2025).

The chains behind the UniProt entries cited, without tags or fusion partners. Where a name states a change or a piece, a line headed by the entry shows the natural chain unless it says otherwise.
UniProt Q9UBF8: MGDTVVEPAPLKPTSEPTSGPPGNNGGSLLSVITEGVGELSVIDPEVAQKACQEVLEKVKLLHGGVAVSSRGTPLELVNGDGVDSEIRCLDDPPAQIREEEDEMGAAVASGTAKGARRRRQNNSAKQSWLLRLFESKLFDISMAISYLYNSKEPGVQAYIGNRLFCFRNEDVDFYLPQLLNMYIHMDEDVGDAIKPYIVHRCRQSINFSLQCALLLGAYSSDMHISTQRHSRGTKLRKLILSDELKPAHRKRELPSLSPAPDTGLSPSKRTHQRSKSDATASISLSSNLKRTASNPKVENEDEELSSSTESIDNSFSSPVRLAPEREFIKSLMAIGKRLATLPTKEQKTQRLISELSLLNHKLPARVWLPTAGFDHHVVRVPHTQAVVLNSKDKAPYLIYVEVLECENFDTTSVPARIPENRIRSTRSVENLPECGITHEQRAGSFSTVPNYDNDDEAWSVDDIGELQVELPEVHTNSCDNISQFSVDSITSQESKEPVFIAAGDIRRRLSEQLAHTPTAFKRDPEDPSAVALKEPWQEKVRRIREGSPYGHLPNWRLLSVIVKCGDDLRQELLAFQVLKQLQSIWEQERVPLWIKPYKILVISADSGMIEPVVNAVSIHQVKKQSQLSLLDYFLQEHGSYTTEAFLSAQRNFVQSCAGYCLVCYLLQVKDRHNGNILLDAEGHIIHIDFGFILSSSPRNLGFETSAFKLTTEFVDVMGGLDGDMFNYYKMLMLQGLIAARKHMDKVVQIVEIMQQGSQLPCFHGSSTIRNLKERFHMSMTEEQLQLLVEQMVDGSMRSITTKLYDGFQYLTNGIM
UniProt Q9P2C4: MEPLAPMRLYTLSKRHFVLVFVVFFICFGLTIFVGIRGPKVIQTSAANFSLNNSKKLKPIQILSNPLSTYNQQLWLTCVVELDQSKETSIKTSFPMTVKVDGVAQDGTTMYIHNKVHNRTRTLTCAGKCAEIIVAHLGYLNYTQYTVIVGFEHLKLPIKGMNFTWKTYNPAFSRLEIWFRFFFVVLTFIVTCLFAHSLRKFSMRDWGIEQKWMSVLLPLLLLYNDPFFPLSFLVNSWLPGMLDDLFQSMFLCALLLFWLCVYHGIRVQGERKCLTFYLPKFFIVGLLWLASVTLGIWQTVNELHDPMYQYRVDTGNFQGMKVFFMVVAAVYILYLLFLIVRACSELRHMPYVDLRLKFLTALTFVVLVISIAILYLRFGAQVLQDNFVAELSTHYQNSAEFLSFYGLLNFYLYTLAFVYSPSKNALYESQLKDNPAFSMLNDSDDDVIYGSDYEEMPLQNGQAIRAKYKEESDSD
UniProt Q9P2E9: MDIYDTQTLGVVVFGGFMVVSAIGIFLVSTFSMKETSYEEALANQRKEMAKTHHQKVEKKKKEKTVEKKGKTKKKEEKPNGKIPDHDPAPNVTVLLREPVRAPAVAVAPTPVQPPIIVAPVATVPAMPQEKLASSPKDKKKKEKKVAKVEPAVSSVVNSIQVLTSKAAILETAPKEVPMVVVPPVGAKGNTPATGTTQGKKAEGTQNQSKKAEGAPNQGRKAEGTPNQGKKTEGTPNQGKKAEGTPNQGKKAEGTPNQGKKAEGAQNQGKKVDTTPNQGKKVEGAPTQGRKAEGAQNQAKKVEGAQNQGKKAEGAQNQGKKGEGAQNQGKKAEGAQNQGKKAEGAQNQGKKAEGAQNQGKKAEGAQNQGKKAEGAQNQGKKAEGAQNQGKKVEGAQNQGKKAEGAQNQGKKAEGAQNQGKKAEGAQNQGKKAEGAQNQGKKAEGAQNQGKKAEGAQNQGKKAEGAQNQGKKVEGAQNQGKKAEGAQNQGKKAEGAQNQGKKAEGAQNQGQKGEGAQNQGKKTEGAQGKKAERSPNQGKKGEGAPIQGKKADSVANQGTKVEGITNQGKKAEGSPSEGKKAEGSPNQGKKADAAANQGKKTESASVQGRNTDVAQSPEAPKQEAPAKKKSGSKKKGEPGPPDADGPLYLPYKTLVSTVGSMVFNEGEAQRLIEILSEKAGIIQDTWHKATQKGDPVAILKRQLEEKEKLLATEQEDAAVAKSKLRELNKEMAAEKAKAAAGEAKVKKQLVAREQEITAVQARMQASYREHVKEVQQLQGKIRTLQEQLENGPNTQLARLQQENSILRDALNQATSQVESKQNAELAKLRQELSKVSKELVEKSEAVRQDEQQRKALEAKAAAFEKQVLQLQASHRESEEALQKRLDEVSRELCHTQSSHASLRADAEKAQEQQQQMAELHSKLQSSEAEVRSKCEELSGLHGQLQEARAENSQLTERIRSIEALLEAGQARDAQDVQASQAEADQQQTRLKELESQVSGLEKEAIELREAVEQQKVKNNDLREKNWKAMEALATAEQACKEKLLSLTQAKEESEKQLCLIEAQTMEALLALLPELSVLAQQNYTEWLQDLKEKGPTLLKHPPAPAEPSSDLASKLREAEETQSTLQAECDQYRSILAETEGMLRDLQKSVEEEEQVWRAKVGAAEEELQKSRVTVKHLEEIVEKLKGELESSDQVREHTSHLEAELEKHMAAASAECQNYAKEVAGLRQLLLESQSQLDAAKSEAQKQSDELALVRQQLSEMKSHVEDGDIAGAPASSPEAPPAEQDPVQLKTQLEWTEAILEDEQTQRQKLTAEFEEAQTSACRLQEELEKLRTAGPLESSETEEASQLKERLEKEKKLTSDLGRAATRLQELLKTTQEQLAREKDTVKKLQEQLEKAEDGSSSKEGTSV
UniProt Q9NWZ3, whole entry: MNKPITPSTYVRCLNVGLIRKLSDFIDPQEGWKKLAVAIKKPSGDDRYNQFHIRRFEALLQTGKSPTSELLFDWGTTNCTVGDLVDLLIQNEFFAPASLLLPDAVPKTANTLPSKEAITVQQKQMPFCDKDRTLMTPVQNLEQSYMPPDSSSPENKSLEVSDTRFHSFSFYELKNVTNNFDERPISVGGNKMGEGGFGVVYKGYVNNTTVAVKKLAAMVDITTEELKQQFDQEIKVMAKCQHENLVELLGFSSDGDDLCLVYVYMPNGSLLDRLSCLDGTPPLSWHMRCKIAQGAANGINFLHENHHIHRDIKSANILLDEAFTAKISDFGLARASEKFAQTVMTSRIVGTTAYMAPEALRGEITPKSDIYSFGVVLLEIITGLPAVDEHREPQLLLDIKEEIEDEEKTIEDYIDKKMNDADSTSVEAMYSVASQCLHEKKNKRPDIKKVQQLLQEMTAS
UniProt Q9P2S2: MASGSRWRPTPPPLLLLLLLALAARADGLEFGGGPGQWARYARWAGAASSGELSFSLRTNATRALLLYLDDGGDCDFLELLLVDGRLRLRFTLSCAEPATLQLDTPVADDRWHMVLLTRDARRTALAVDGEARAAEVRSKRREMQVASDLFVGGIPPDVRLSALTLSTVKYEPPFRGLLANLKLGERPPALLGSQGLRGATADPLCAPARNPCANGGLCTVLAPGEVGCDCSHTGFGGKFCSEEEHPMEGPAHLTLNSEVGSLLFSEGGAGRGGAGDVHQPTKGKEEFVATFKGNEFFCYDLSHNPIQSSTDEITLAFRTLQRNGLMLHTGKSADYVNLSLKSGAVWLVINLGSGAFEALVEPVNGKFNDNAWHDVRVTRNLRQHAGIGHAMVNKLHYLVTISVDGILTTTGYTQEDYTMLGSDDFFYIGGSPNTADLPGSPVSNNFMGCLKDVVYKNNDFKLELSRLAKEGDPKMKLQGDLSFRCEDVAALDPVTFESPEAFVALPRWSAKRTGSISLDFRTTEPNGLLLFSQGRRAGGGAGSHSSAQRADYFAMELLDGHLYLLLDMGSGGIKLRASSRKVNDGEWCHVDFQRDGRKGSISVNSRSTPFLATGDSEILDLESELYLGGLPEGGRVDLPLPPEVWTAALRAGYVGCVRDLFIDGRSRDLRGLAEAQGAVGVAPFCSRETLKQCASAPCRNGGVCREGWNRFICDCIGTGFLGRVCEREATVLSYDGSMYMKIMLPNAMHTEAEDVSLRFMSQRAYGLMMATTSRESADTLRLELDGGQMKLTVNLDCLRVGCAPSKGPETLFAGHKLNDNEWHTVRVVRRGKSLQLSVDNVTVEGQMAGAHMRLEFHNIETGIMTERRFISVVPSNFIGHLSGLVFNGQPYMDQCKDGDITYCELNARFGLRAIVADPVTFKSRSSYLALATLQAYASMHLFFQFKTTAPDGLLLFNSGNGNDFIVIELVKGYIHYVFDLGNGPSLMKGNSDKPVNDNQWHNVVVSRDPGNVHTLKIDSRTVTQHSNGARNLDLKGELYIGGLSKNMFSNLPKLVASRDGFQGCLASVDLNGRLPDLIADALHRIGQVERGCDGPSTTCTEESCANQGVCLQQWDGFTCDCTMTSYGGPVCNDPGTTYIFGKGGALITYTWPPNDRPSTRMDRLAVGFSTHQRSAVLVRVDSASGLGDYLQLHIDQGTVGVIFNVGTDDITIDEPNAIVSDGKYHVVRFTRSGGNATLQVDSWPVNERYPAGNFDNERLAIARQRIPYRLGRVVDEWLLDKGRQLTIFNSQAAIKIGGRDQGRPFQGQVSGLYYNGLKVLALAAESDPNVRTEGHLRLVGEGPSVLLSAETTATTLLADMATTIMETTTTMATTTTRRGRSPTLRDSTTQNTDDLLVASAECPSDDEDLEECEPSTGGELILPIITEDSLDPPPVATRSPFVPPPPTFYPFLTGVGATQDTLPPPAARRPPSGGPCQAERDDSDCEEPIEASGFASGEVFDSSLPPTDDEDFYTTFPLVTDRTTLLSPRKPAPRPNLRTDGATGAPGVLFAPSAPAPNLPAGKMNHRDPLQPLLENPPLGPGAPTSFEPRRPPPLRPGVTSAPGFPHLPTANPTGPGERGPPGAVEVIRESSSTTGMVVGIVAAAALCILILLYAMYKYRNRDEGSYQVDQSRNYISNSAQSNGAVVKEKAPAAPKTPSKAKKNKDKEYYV
UniProt Q9NZL4: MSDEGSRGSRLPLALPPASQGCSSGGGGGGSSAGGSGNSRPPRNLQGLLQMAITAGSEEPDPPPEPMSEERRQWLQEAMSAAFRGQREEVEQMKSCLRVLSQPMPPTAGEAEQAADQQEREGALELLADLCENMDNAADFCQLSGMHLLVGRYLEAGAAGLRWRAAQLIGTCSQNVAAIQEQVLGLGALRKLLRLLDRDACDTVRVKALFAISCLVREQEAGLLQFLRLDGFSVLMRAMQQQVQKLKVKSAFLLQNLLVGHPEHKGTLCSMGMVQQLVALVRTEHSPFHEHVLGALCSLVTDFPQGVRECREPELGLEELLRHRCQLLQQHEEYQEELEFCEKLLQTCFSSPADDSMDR
UniProt Q9NYL4: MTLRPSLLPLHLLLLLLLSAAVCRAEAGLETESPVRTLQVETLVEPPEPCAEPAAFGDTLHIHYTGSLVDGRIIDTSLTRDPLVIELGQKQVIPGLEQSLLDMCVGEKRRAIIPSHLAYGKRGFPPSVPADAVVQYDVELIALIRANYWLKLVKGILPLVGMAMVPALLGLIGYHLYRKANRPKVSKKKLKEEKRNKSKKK
UniProt Q9NX00: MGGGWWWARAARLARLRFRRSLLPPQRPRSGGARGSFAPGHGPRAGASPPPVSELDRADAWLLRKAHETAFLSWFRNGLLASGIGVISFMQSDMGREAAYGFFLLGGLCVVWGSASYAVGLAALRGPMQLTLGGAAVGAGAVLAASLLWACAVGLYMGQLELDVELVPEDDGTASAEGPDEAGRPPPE
UniProt Q9NWV8, whole entry: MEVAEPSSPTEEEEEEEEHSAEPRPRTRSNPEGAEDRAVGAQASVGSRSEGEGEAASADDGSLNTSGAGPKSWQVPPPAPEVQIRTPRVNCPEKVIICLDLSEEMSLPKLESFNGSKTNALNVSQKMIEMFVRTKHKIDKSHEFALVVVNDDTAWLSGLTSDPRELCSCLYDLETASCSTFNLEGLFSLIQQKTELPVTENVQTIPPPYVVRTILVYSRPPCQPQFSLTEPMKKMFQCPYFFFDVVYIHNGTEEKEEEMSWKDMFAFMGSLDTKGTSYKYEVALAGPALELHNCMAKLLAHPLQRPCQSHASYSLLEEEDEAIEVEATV
UniProt Q9P2X3: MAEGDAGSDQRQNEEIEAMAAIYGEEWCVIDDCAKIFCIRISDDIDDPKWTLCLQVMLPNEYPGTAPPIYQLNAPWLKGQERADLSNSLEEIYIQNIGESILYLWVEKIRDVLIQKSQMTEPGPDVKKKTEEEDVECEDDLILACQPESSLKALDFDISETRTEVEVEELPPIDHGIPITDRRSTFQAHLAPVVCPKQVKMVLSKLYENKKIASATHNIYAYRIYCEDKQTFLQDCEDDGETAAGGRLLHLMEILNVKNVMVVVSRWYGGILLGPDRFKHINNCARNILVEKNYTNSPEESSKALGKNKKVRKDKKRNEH
UniProt Q9NVX0: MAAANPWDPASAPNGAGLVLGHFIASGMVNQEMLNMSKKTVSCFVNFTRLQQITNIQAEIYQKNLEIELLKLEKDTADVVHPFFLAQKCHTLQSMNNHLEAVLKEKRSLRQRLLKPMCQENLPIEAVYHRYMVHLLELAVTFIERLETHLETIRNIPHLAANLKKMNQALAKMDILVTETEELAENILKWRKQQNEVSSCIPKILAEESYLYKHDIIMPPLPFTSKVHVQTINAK

This is one part of the list. This is a noisy data set.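 Tm was set to 64 °C where no melting was found, and many curves are irregular.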

Compound in one assay: CCc1cnccc1C(=O)Nc1cc2c(cc1F)NC(=O)CC2
Nature of the assay: melting temperature shift (DMSO Tm minus MBE1-treated Tm) in cellular thermal proteome profiling; higher = less thermal stabilization by MBE1 (negative = stabilized by MBE1). Conditions: A375; MBE1 concentration: 100 nM.
As to ZNHIT6 (UniProt Q9NWK9), the melting temperature shift is -0.269 °C.
As for UniProt Q9UBF8, the melting temperature shift is -0.738 °C.
For ADD3 (UniProt Q9UEY8), the melting temperature shift is -3.58 °C.
Still for that read-out and setting: the result for UniProt Q9NY61 reads -0.0192 °C; that for MTMR10 (UniProt Q9NXD2), 0.568 °C.
The same measure, in the same setting: then RERE (UniProt Q9P2R6), with -2.3 °C; and TMEM181 (UniProt Q9P2C4), with -4.33 °C; and CDKN2AIP (UniProt Q9NXV6), with 0.324 °C.
On to EIF2AK3 (UniProt Q9NZJ5), for which the melting temperature shift is -2.63 °C.
With UniProt Q9P1U1, the melting temperature shift is -2.82 °C.
In the case of ATAD3A (UniProt Q9NVI7), the melting temperature shift is -0.125 °C.
For EIF2AK4 (UniProt Q9P2K8), the melting temperature shift worked out at 0.179 °C.
On to UniProt Q9P0K1, for which the melting temperature shift was found to be 0.704 °C.
On the same count and under the same terms, the result for MRPL35 (UniProt Q9NZE8) reads 0.189 °C; that for ARMC1 (UniProt Q9NVT9), -0.543 °C.
For the target KBTBD4 (UniProt Q9NVX7), the melting temperature shift turned out to be 0.168 °C.
The same measure, in the same setting: the result for RRBP1 (UniProt Q9P2E9) reads -1.24 °C; that for TERF2IP (UniProt Q9NYB0), 0.812 °C.
Same read-out and setting: then DAXX (UniProt Q9UER7), with -0.602 °C.
Regarding VPS29 (UniProt Q9UBQ0), the melting temperature shift is -1.52 °C.
On to IRAK4 (UniProt Q9NWZ3), for which the melting temperature shift came to 0.449 °C.
For the target UniProt Q9P2S5, the melting temperature shift was -0.385 °C.
On to UniProt Q9P2S2, for which the melting temperature shift came out at 0.0335 °C.
Same read-out and setting: then UniProt Q9P2N6, with 0.855 °C; and ASUN (UniProt Q9NVM9), with 0.202 °C; and EMC3 (UniProt Q9P0I2), with -0.523 °C.
Same read-out and setting: then DDX56 (UniProt Q9NY93), with -0.00611 °C; and PIH1D1 (UniProt Q9NWS0), with 0.879 °C; and HSPBP1 (UniProt Q9NZL4), with 0.946 °C.
Regarding UniProt Q9NYL4, the melting temperature shift was -2.04 °C.
For the target UniProt Q9NYL2, the melting temperature shift was -0.295 °C.
On the same count and under the same terms, then ZMYM2 (UniProt Q9UBW7), with -0.41 °C; and EIF3K (UniProt Q9UBQ5), with 0.0733 °C; and FAM120A (UniProt Q9NZB2), with -0.402 °C.
On the same count and under the same terms, the result for TMEM160 (UniProt Q9NX00) reads -1.5 °C; that for BABAM1 (UniProt Q9NWV8), -1.07 °C; that for IMPACT (UniProt Q9P2X3), -0.874 °C.
Same read-out and setting: then HAUS2 (UniProt Q9NVX0), with -0.423 °C.

The assay is the same for the next values; noted with them: A375; MBE1 concentration: 1 uM.
On to ZNHIT6 (UniProt Q9NWK9), for which the melting temperature shift is -0.532 °C.
Same read-out and setting: the result for UniProt Q9UBF8 reads 0.167 °C.
Regarding ADD3 (UniProt Q9UEY8), the melting temperature shift was found to be 0.389 °C.
The same measure, in the same setting: the result for UniProt Q9NY61 reads -0.41 °C; that for MTMR10 (UniProt Q9NXD2), -0.44 °C; that for RERE (UniProt Q9P2R6), -5.19 °C.
On to TMEM181 (UniProt Q9P2C4), for which the melting temperature shift was -4.33 °C.
Regarding CDKN2AIP (UniProt Q9NXV6), the melting temperature shift was -0.116 °C.
For EIF2AK3 (UniProt Q9NZJ5), the melting temperature shift was -2.16 °C.
Still for that read-out and setting: the result for UniProt Q9P1U1 reads 0.125 °C; that for ATAD3A (UniProt Q9NVI7), -0.119 °C; that for EIF2AK4 (UniProt Q9P2K8), -0.0211 °C.
Same read-out and setting: the result for UniProt Q9P0K1 reads -4.39 °C; that for MRPL35 (UniProt Q9NZE8), 10.9 °C.
The same measure, in the same setting: the result for ARMC1 (UniProt Q9NVT9) reads 0.861 °C.
In the case of KBTBD4 (UniProt Q9NVX7), the melting temperature shift is 0.852 °C.
On to RRBP1 (UniProt Q9P2E9), for which the melting temperature shift amounted to 0.452 °C.
Same read-out and setting: the result for TERF2IP (UniProt Q9NYB0) reads -0.122 °C; that for DAXX (UniProt Q9UER7), -0.404 °C.
VPS29 (UniProt Q9UBQ0): the melting temperature shift is 0.318 °C.
In the case of IRAK4 (UniProt Q9NWZ3), the melting temperature shift was -1.3 °C.
On the same count and under the same terms, the result for UniProt Q9P2S5 reads 2.07 °C; that for UniProt Q9P2S2, 1.76 °C; that for UniProt Q9P2N6, 1.14 °C.
The same measure, in the same setting: then ASUN (UniProt Q9NVM9), with -0.171 °C.
On the same count and under the same terms, the result for EMC3 (UniProt Q9P0I2) reads 0.657 °C; that for DDX56 (UniProt Q9NY93), 0.0122 °C; that for PIH1D1 (UniProt Q9NWS0), 0.379 °C.
Regarding HSPBP1 (UniProt Q9NZL4), the melting temperature shift was determined as 0.641 °C.
On the same count and under the same terms, the result for UniProt Q9NYL4 reads 1.11 °C; that for UniProt Q9NYL2, 0.161 °C.
The same measure, in the same setting: then ZMYM2 (UniProt Q9UBW7), with -0.442 °C.
In the case of EIF3K (UniProt Q9UBQ5), the melting temperature shift was determined as 0.11 °C.
The same measure, in the same setting: then FAM120A (UniProt Q9NZB2), with 0.443 °C.
The same measure, in the same setting: the result for TMEM160 (UniProt Q9NX00) reads -3.54 °C; that for BABAM1 (UniProt Q9NWV8), 0.691 °C; that for IMPACT (UniProt Q9P2X3), -0.785 °C.
Same read-out and setting: then HAUS2 (UniProt Q9NVX0), with 0.0047 °C.
